Measured values as given in PubChem BioAssay (NCATS).
The inconclusive results got no clear call from the source; some entries with a clear call stand among them for comparison. For some assays here: Where the call is inconclusive, the potency comes from a doubtful curve fit. Activity calls are given as the source filed them. The call rests on the fitted dose curve; in most records, active means well fitted cell-killing curve with a large enough effect; inconclusive means small, poorly fitted or top-dose-only effect, or effect the other way; inactive means no such curve, though single readings can be large or run the other way.

Key:
[1] = Quantitative High-Throughput drug screen in 47 multiple myeloma cell lines against the NCATS MIPE library collection: MOLP8_DSMZ cell viability assay (AID 1918977); conditions: MOLP8 myeloma viability, CellTiter-Glo ATP luminescence, 48 h; series mostly up to 45.8 µM; further: nearly all actives have a fitted effect of over 45% in size; further: potency means the concentration at half of the fitted maximal effect;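 on viability (% of control): 100% = DMSO-only wells and 0% = media-only wells without cells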
Procedure, shortened: (§1)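 500 cells/well; MIPE 4.0 drugs pin-transferred; 48 h, 37C, 5% CO2. CellTiter-Glo, 5 min RT, luminescence. Controls: DMSO 100%, media 0%.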

[2] = Quantitative High-Throughput drug screen in 47 multiple myeloma cell lines against the NCATS MIPE library collection: OCIMY1_PLB cell viability assay (AID 1918979); conditions: OCI-MY1 myeloma viability, CellTiter-Glo ATP, 48 h; series mostly up to 45.8 µM; further: nearly all actives have a fitted effect of over 35% in size; further: potency means the concentration at half of the fitted maximal effect;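 on viability: 100% = DMSO-only wells and 0% = cell-free media-only wells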
Procedure, shortened: as §1

[3] = Quantitative High-Throughput drug screen in 47 multiple myeloma cell lines against the NCATS MIPE library collection: LP1_DSMZ cell viability assay (AID 1918982); conditions: LP1 myeloma viability, CellTiter-Glo ATP luminescence, 48 h; series mostly up to 45.8 µM; further: nearly all actives have a fitted effect of over 35% in size; further: potency means the concentration at half of the fitted maximal effect
Procedure, shortened: as §1

[4] = Quantitative High-Throughput drug screen in 47 multiple myeloma cell lines against the NCATS MIPE library collection: KMS34_JCRB cell viability assay (AID 1918985); conditions: KMS34 myeloma viability, CellTiter-Glo ATP luminescence, 48 h; viability, percent of control: at 45.8 µM (top of the series); further: nearly all actives have a fitted effect of over 40% in size; further: potency means the concentration at half of the fitted maximal effect
Procedure, shortened: as §1

[5] = Quantitative High-Throughput drug screen in 47 multiple myeloma cell lines against the NCATS MIPE library collection: OCIMY7_PLB cell viability assay (AID 1918987); conditions: OCI-MY7 myeloma viability, CellTiter-Glo ATP, 48 h; viability (% of DMSO): at 45.8 µM unless noted; further: potency means the concentration at half of the fitted maximal effect; nearly all actives have a fitted effect of over 65% in size
Procedure, shortened: as §1

[6] = Quantitative High-Throughput drug screen in 47 multiple myeloma cell lines against the NCATS MIPE library collection: OCIMY5_PLB cell viability assay (AID 1918988); conditions: OCI-MY5 myeloma viability, ATP luminescence, 48 h; viability, % of control: at 45.8 µM; further: nearly all actives have a fitted effect of over 65% in size; further: potency means the concentration at half of the fitted maximal effect;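 on viability, % of control: 100% = DMSO-treated wells and 0% = wells with media alone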
Procedure, shortened: as §1

[7] = Quantitative High-Throughput drug screen in 47 multiple myeloma cell lines against the NCATS MIPE library collection: OPM1_PLB cell viability assay (AID 1918989); conditions: CellTiter-Glo, 48 h; viability (% of control): at 45.8 µM; further: potency means the concentration at half of the fitted maximal effect; nearly all actives have a fitted effect of over 40% in size
Procedure, shortened: as §1

[8] = Quantitative High-Throughput drug screen in 47 multiple myeloma cell lines against the NCATS MIPE library collection: SKMM1_PLB cell viability assay (AID 1919863); conditions: SKMM1 myeloma viability, CellTiter-Glo ATP, 48 h; viability: hits give low values; further: nearly all actives have a fitted effect of over 35% in size; further: potency means the concentration at half of the fitted maximal effect
Procedure, shortened: as §1

[9] = Quantitative High-Throughput drug screen in 47 multiple myeloma cell lines against the NCATS MIPE library collection: U266_ATCC cell viability assay (AID 1919864); conditions: U266 myeloma viability, CellTiter-Glo ATP luminescence, 48 h; series mostly up to 45.8 µM; further: nearly all actives have a fitted effect of over 35% in size; further: potency means the concentration at half of the fitted maximal effect;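 on viability (% of DMSO control): 0% = media-only wells without cells and 100% = DMSO-only wells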
Procedure, shortened: as §1

[10] = Quantitative High-Throughput drug screen in 47 multiple myeloma cell lines against the NCATS MIPE library collection: XG1_PLB cell viability assay (AID 1919866); conditions: CellTiter-Glo ATP, 48 h; series mostly up to 45.8 µM; further: nearly all actives have a fitted effect of over 35% in size
Procedure, shortened: as §1

[11] = Quantitative High-Throughput drug screen in 47 multiple myeloma cell lines against the NCATS MIPE library collection: VP6_DJ cell viability assay (AID 1919867); conditions: ATP luminescence, 48 h; viability (% of DMSO): at 45.8 µM; further: nearly all actives have a fitted effect of over 40% in size; further: potency means the concentration at half of the fitted maximal effect;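 on viability (% of DMSO): 100% = DMSO-only wells and 0% = wells with media alone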
Procedure, shortened: as §1

[12] = Quantitative High-Throughput drug screen in 47 multiple myeloma cell lines against the NCATS MIPE library collection: UTMC2_PLB cell viability assay (AID 1919868); conditions: CellTiter-Glo ATP luminescence, 48 h; viability (% of DMSO control): at 45.8 µM; further: nearly all actives have a fitted effect of over 55% in size; further: potency means the concentration at half of the fitted maximal effect;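 on viability (% of DMSO control): 100% = DMSO-only wells and 0% = media-only wells without cells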
Procedure, shortened: as §1

[13] = Quantitative High-Throughput drug screen in 47 multiple myeloma cell lines against the NCATS MIPE library collection: KMS28PE_JCRB cell viability assay (AID 1918983); conditions: KMS28PE multiple myeloma viability, CellTiter-Glo ATP, 48 h; series mostly up to 45.8 µM
Procedure, shortened: as §1

[14] = Quantitative High-Throughput drug screen in 47 multiple myeloma cell lines against the NCATS MIPE library collection: L363_DSMZ cell viability assay (AID 1918984); conditions: L363 myeloma viability, CellTiter-Glo ATP luminescence, 48 h; viability (% of control): at 45.8 µM; further: nearly all actives have a fitted effect of over 40% in size
Procedure, shortened: as §1

[15] = Quantitative High-Throughput drug screen in 47 multiple myeloma cell lines against the NCATS MIPE library collection: PCM6_Riken cell viability assay (AID 1919870); conditions: CellTiter-Glo ATP, 48 h; viability (% of control): at 45.8 µM; further: nearly all actives have a fitted effect of over 30% in size; further: potency means the concentration at half of the fitted maximal effect
Procedure, shortened: as §1

[16] = Quantitative High-Throughput drug screen in 47 multiple myeloma cell lines against the NCATS MIPE library collection: XG6_PLB cell viability assay (AID 1919865); conditions: XG6 myeloma viability, CellTiter-Glo ATP luminescence, 48 h; viability (% of control): at 45.8 µM; further: nearly all actives have a fitted effect of over 40% in size; further: potency means the concentration at half of the fitted maximal effect
Procedure, shortened: as §1

[17] = Quantitative High-Throughput drug screen in 47 multiple myeloma cell lines against the NCATS MIPE library collection: PE2_PLB cell viability assay (AID 1919869); conditions: PE2_PLB myeloma cells viability, ATP luminescence, 48 h; viability (% of control): at 45.8 µM; further: nearly all actives have a fitted effect of over 35% in size; further: potency means the concentration at half of the fitted maximal effect;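 on viability (% of control): 100% = DMSO-only wells and 0% = cell-free media-only wells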
Procedure, shortened: as §1

[18] = Quantitative High-Throughput drug screen in 47 multiple myeloma cell lines against the NCATS MIPE library collection: MM1R_ATCC cell viability assay (AID 1918981); conditions: MM1R multiple myeloma cells, CellTiter-Glo viability, 48 h; series mostly up to 45.8 µM
Procedure, shortened: as §1

Structure (SMILES): CC(C)N(CC[C@H](c1ccccc1)c1cc(CO)ccc1O)C(C)C
- Potency [1]: inactive
- Potency [2]: inactive
- Potency [3]: inactive
- Potency [4]: inactive
- Potency [5]: inconclusive: 29.6 nM [rising, full curve, poor fit]
- Potency [6]: inconclusive: 2.1 nM [rising, full curve, poor fit]
- Potency [7]: inconclusive: 11.8 µM [cytotoxic, partial curve, poor fit]
- Potency [8]: inconclusive: 26.4 nM [rising, full curve]
- Potency [9]: inconclusive: 18.7 nM [rising, full curve, poor fit]
- Potency [10]: inactive
- Potency [11]: inactive
- Potency [12]: inconclusive: 0.105 µM [rising, full curve, poor fit]

Structure (SMILES): C[C@H](Cn1cnc2c(N)ncnc21)OCP(=O)(O)O
- Potency [1]: inactive
- Potency [2]: inconclusive: 11.8 nM [rising, full curve, poor fit]
- Potency [3]: inconclusive: 29.6 nM [rising, full curve]
- Potency [13]: inconclusive: 66.2 nM [rising, full curve, poor fit]
- Potency [14]: inactive
- Potency [4]: inactive
- Potency [5]: inconclusive: 4.2 nM [rising, full curve, poor fit]
- Potency [6]: inactive
- Potency [8]: inconclusive: 4.7 nM [rising, full curve, poor fit]
- Potency [9]: inconclusive: 83.3 nM [rising, full curve]
- Potency [11]: inactive
- Potency [12]: inactive
- Potency [15]: inconclusive: 0.0033 µM [rising, full curve, poor fit]

Structure (SMILES): CS(=O)(=O)c1ccc(C(=O)Nc2ccc(Cl)c(-c3ccccn3)c2)c(Cl)c1
- Potency [1]: inactive
- Potency [2]: inconclusive: 33200 nM [rising, single point]
- Potency [3]: inactive
- Potency [14]: inactive
- Potency [6]: inconclusive: 93.5 nM [rising, full curve, poor fit]
- viability [8]: inactive: 129%
- Potency [9]: inconclusive: 3320 nM [cytotoxic, full curve, poor fit]
- Potency [16]: inconclusive: 20.9 µM [cytotoxic, single point]
- Potency [11]: inconclusive: 18700 nM [cytotoxic, partial curve, poor fit]
- Potency [12]: inconclusive: 14.8 µM [cytotoxic, partial curve, poor fit]
- Potency [17]: inconclusive: 3.72 µM [cytotoxic, partial curve]
- Potency [15]: inconclusive: 18.7 µM [cytotoxic, partial curve, poor fit]

Structure (SMILES): COc1ccccc1OCC(O)COC(N)=O (stereo not drawn)
- Potency [1]: inactive
- Potency [2]: inconclusive: 1.3 nM [rising, full curve]
- Potency [18]: inconclusive: 18.7 µM [rising, single point]
- Potency [14]: inactive
- Potency [5]: inconclusive: 1.9 nM [rising, full curve, poor fit]
- Potency [6]: inconclusive: 11800 nM [rising, single point]
- viability [8]: inactive: 136%
- Potency [9]: inactive
- Potency [16]: inactive
- Potency [10]: inactive
- Potency [11]: inconclusive: 9.3 nM [cytotoxic, full curve, poor fit]
- Potency [17]: inactive
- Potency [15]: inactive

Structure (SMILES): Nc1ccn([C@@H]2O[C@H](CO)[C@H](O)C2(F)F)c(=O)n1
- Potency [1]: inconclusive: 29.6 nM [cytotoxic, full curve]
- Potency [2]: inconclusive: 2350 nM [cytotoxic, partial curve]
- Potency [3]: inconclusive: 4.2 nM [cytotoxic, full curve, poor fit]
- Potency [4]: inconclusive: 18.7 nM [cytotoxic, full curve, poor fit]
- Potency [6]: active: 5900 nM
- Potency [7]: inconclusive: 0.296 µM [cytotoxic, full curve, poor fit]
- Potency [15]: active: 1.87 µM

Structure (SMILES): Clc1ccc2c(c1)C(N1CCNCC1)=Nc1ccccc1O2
- Potency [1]: inactive
- Potency [2]: inactive
- Potency [3]: inconclusive: 29600 nM [cytotoxic, partial curve]
- Potency [14]: inactive
- Potency [5]: inconclusive: 3 nM [rising, full curve, poor fit]
- Potency [8]: inconclusive: 18700 nM [cytotoxic, partial curve, poor fit]
- Potency [9]: inconclusive: 4690 nM [cytotoxic, full curve, poor fit]
- Potency [11]: inconclusive: 10.5 nM [rising, full curve]
- Potency [12]: inconclusive: 37.2 µM [cytotoxic, single point]
- Potency [17]: inconclusive: 37.2 µM [cytotoxic, single point]
- Potency [15]: inconclusive: 33.2 µM [cytotoxic, single point]
